Data source: PubChem BioAssay AID504784 (Drosophila RNAi Screening Center, 2011)
In all, the deposit lists about 17,000 reagents; this is a random part of those that have a named target and a result. 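Each column is one replicate's B-score; the combined score over replicates was not deposited, so single values may mislead.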 Names joined by + are all predicted targets of the reagent. Further read-outs or replicates are left out here.

Aim: 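Fly genes whose silencing alters how much lipid cells keep in droplets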 (primary screen)
Cells: Drosophila Kc167 embryonic cells
Reagents: long dsRNA against Drosophila genes, about 250 ng dsRNA per well
Time to read-out: 4 days
Treatment: cells fed 400 µM oleic acid bound to BSA
Read-out: 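Microscope images give a droplet-to-nucleus area ratio, taken as log and converted to a screen-wide B-score; higher values mean greater lipid storage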
Reading the numbers: droplet/nuclear area B-score: higher = more stored lipid (overstorage)

Against CG15365 [DRSC18038], the entry reads droplet/nuclear area B-score, replicate 1 = -2.23.
With knock-down of CG15365 [DRSC23021], the screen gave droplet/nuclear area B-score, replicate 1 = -0.147.
Knock-down of CG18139 (retired record) + Hmx [DRSC15307] came out at: droplet/nuclear area B-score, replicate 1 = 0.935.
Knock-down of Cyp301a1 (Cytochrome P450 301a1) [DRSC07365] came out at: droplet/nuclear area B-score, replicate 1 = 0.126.
Depletion of H (Hairless) [DRSC16692] came out at: droplet/nuclear area B-score, replicate 1 = 1.52.
CG14864 [DRSC14987] scored droplet/nuclear area B-score, replicate 1 = 4.7.
Silencing of levy [DRSC04289] resulted in: droplet/nuclear area B-score, replicate 1 = 2.97.
Silencing of 140up (upstream of RpII140) [DRSC12634] resulted in: droplet/nuclear area B-score, replicate 1 = 0.52.
Silencing of CG13051 [DRSC09932] resulted in: droplet/nuclear area B-score, replicate 1 = -0.403.
Depletion of BomS5 (Bomanin Short 5) [DRSC22306] gave: droplet/nuclear area B-score, replicate 1 = 0.239.
With knock-down of Gug (Grunge) [DRSC11179], the screen gave droplet/nuclear area B-score, replicate 1 = 0.0179.
For CG6685 [DRSC10695] the deposit lists droplet/nuclear area B-score, replicate 1 = 1.64.
CG14042 + SP555 [DRSC02367] gave droplet/nuclear area B-score, replicate 1 = 2.6.
Against CG14042 + SP555 [DRSC03428] the deposit lists droplet/nuclear area B-score, replicate 1 = -0.0527.
mRpL12 (mitochondrial ribosomal protein L12) [DRSC10467] scored droplet/nuclear area B-score, replicate 1 = 0.263.
Against Usp30 (Ubiquitin specific protease 30) [DRSC18265], the entry reads droplet/nuclear area B-score, replicate 1 = -0.246.
Depletion of Cad88C (Cadherin 88C) [DRSC15486] gave: droplet/nuclear area B-score, replicate 1 = 0.232.
Knock-down of Pis (Phosphatidylinositol synthase) [DRSC20178] gave: droplet/nuclear area B-score, replicate 1 = 1.4.
RpS30 (Ribosomal protein S30) [DRSC15119] showed droplet/nuclear area B-score, replicate 1 = 2.92.
Knock-down of Ugt50B3 (UDP-glycosyltransferase family 50 member B3) [DRSC04778] gave: droplet/nuclear area B-score, replicate 1 = -1.22.
Against Ugt50B3 (UDP-glycosyltransferase family 50 member B3) [DRSC21419], the entry reads droplet/nuclear area B-score, replicate 1 = -0.992.
For Cyp6a14 (retired record) [DRSC07376], the entry reads droplet/nuclear area B-score, replicate 1 = 0.27.
Against Tsp66E (Tetraspanin 66E) [DRSC09683] the deposit lists droplet/nuclear area B-score, replicate 1 = 0.215.
With knock-down of CG14450 [DRSC11707], the record shows droplet/nuclear area B-score, replicate 1 = 0.893.
Depletion of Alp12 (Alkaline phosphatase 12) [DRSC02515] gave: droplet/nuclear area B-score, replicate 1 = -0.305.
After knock-down of neur (neuralized) [DRSC17013] the results were droplet/nuclear area B-score, replicate 1 = -0.0942.
CG17770 + Acam [DRSC14110] showed droplet/nuclear area B-score, replicate 1 = -1.24.
With knock-down of CG17770 + Acam [DRSC15264], the screen gave droplet/nuclear area B-score, replicate 1 = 1.48.
CG32603 [DRSC19409] showed droplet/nuclear area B-score, replicate 1 = 1.68.
Against CG32603 [DRSC21586], the values are droplet/nuclear area B-score, replicate 1 = 1.1.
Knock-down of l(1)10Bb (lethal (1) 10Bb) [DRSC20346] resulted in: droplet/nuclear area B-score, replicate 1 = -1.54.
Against aru (arouser) [DRSC00802] the deposit lists droplet/nuclear area B-score, replicate 1 = 1.07.
Depletion of aru (arouser) [DRSC22019] resulted in: droplet/nuclear area B-score, replicate 1 = 2.85.
Knock-down of CG17272 [DRSC15211] resulted in: droplet/nuclear area B-score, replicate 1 = 0.615.
Depletion of asRNA:CR42547 + CG15674 [DRSC04264] gave: droplet/nuclear area B-score, replicate 1 = -0.168.
Against mRpL32 (mitochondrial ribosomal protein L32) [DRSC14479], the values are droplet/nuclear area B-score, replicate 1 = -0.0655.
Silencing of CG14856 [DRSC14980] gave: droplet/nuclear area B-score, replicate 1 = -0.248.
Against CG6138 [DRSC02933] the deposit lists droplet/nuclear area B-score, replicate 1 = 0.173.
CG13784 [DRSC00974] showed droplet/nuclear area B-score, replicate 1 = 0.626.
After knock-down of CG13784 [DRSC02287] the results were droplet/nuclear area B-score, replicate 1 = -2.42.
